No constants are given. Whether binding was seen depends on the method and setting.
Target: recombinant KIF21B rCC (residues 930–1010) (human) (UniProt O75037)
Assay: AUC; sedimentation velocity, 20°C, 42,000 rpm, Tris-HCl pH 7.5, 150 mM NaCl, 2 mM DTT, three different protein concentrations; both purified

- binding: no binding
B1: recombinant KIF21B rCC (residues 930–1010) (domain or fragment, UniProt O75037 930-1010)
chain: RMTIVNLEADMERLIKKREELFLLQEALRRKRERLQAESPEEEKGLQELAEEIEVLAANIDYINDGITDCQATIVQLEETK
